Measured values: article PMC4447272
No constants are given. Whether binding was seen depends on the method and setting. Some results given as binding are weak or reduced against the parent protein; the word gives no strength.

Legend:
[1] = biological target: Major royal jelly protein 1 (MRJP1) (Apis merifera (so in the source); Apis mellifera)) (UniProt O18330); assay: native gel or EMSA; Blue native-PAGE, 4-16% bis-Tris gel, 5 ug protein, CBB staining; unheated MRJP1 oligomer; both purified
[2] = biological target: Major royal jelly protein 1 (MRJP1) (Apis merifera (so in the source); Apis mellifera)) (UniProt O18330); assay: SEC; Sephacryl S-200 size-exclusion HPLC in phosphate buffer saline (150 mM NaCl, pH 7.4); unheated MRJP1 oligomer from royal jelly; both purified
[3] = biological target: Major royal jelly protein 1 (MRJP1) (Apis merifera (so in the source); Apis mellifera)) (UniProt O18330); assay: SEC; Superose 12 size-exclusion HPLC in PBS; MRJP1 oligomer heated at 56°C for 30 min; both purified

Measured: binding

B1: Major royal jelly protein 1 (MRJP1) (protein, UniProt O18330 20-432)
chain: NILRGESLNKSLPILHEWKFFDYDFGSDERRQDAILSGEYDYKNNYPSDIDQWHDKIFVTMLRYNGVPSSLNVISKKVGDGGPLLQPYPDWSFAKYDDCSGIVSASKLAIDKCDRLWVLDSGLVNNTQPMCSPKLLTFDLTTSQLLKQVEIPHDVAVNATTGKGRLSSLAVQSLDCNTNSDTMVYIADEKGEGLIVYHNSDDSFHRLTSNTFDYDPKFTKMTIDGESYTAQDGISGMALSPMTNNLYYSPVASTSLYYVNTEQFRTSDYQQNDIHYEGVQNILDTQSSAKVVSKSGVLFFGLVGDSALGCWNEHRTLERHNIRTVAQSDETLQMIASMKIKEALPHVPIFDRYINREYILVLSNKMQKMVNNDFNFDDVNFRIMNANVNELILNTRCENPDNDRTPFKISIHL
binds: all assays above
